According to PubChem BioAssay AID1794845 (National Center for Advancing Translational Sciences (NCATS), 2023):
Screen size: about 6,900 compounds; fewer than 10 were called active. Calls follow the shape of the dose curve; as a rule, active = well fitted curve in the direction sought with a large enough effect; inconclusive = small, poorly fitted or top-dose-only effect, or another doubt; inactive = no such curve, though single readings can be large or run the other way. The list shows a part of the results.

Sequences of proteins named here, by UniProt entry; tags and fusion partners are left off. A change or cut given only in a name is not applied to a line headed by its entry.
UniProt C7C422: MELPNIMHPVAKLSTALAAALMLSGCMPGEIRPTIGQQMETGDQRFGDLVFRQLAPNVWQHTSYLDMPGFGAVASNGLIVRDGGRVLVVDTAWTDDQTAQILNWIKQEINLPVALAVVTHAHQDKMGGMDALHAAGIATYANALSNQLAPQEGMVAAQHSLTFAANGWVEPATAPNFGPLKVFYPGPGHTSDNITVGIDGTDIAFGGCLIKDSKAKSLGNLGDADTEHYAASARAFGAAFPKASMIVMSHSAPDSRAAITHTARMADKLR

These compounds were tested against Metallo-beta-lactamase type 2 (Klebsiella pneumoniae) (UniProt C7C422) (assay: qHTS to identify inhibitors of the New Delhi Metallo-beta-lactamase (NDM): primary screen against the NCATS Gemini Collection). Conditions: NDM-1 enzyme, meropenem hydrolysis, absorbance 300 nm; at 38.4 µM (top of the series) unless noted.
Method in brief: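 Meropenem hydrolysis (50 uM final) by 2 nM NDM-1 read as 300 nm absorbance after 30 min, following >30 min compound–enzyme preincubation in HEPES pH 7.0 with 1 uM ZnSO4 and 0.01% Tween20.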
Also: % of control where 0% means no effect.

Structure (SMILES) | activity % (negative = inhibition)
COC[C@H]1C[C@@H](NCc2cn(C)c3ccccc23)[C@H](O)[C@@H]1O | inactive: 4.4% [at 57.5 µM]
Cc1ncc2c(n1)C[C@@H]1CC[C@H]2N1C(=O)C1(c2ccccc2)CC1 | inactive: 6.22%
O=C(Nc1ccc2n(c1=O)C[C@H]1C[C@@H]2CN(C(=O)NC2CCCCC2)C1)c1ccco1 | inactive: 37.6% [at 57.5 µM]
c1cnc2c(c1)NC1(CCCNC1)C(=NC1CCCC1)N2 (stereo not given) | inactive: -0.619%
Cn1nc(-c2ccc3ccccc3c2)cc1[C@H]1CN2CC[C@H]1C[C@@H]2CNC(=O)c1ccco1 | inactive: 8.72%
O=C1Nc2ccccc2C12CCN(Cc1cccnc1)C2 (stereo not given) | inactive: 11.9% [at 57.5 µM]
CC1CCN(CC2CCCCCN2C(=O)Cc2ccccc2)CC1 (stereo not given) | inactive: 10.8%
Cc1cc(C)n(CCC(=O)N2[C@H]3CC[C@@H]2c2cnc(-c4ccccc4)nc2C3)n1 | inactive: 8.05%
Cc1cccnc1CN1CCN2C(=O)N(c3ccccc3)C[C@H]2C1 | inactive: -3.51% [at 57.5 µM]
O=S(=O)(NC[C@H]1C[C@@H]2CCN1C[C@@H]2CN1CCOCC1)c1ccccc1 | inactive: 1.12% [at 57.5 µM]
CCOc1ccc2c(n1)CCNC2 | inactive: 15.8%
O=[S+]([O-])(C1CC1)N1C2CCC1CN(Cc1cccnc1)C2 | inactive: -0.192%
CNC1CCc2ccccc21 (stereo not given) | inactive: 0.762% [at 77.1 µM]
c1ccc(-c2ncc3c(n2)C[C@@H]2CC[C@H]3N2)cc1 | inactive: 3.02%
O=C(NCc1ccc(F)cc1)[C@H]1CN2CCC1C[C@@H]2Cn1cc(CSc2ccccc2)nn1 (stereo not given in full) | inactive: -1.93%
COC1CN(c2ccc(C)cc2)C12CCNCC2 (stereo not given) | inactive: 2.7%
COc1ccc(NC(=O)N2C[C@@H]3C[C@H](C2)c2c(NC(=O)CSC)ccc(=O)n2C3)cc1 | inactive: 11.6%
Cc1ccc(C)c(CC(=O)N2CCN(CCO)CC(O)C2)c1 (stereo not given) | inactive: -0.882%
CC[C@H]1CN2CC[C@H]1C[C@@H]2CNCc1ccc(-c2ccccc2)cc1 | inactive: -0.692% [at 57.5 µM]
COc1cccc(CC(=O)N2CC[C@H]3C(=O)NCCCCCN(Cc4cccnc4)[C@@H]3C2)c1 | inactive: 0.121%
COc1cccc([C@@H]2CCN(Cc3[nH]c4ccccc4c3C)C[C@H]2O)c1 | inactive: -1.13%
COCC(=O)NC[C@H]1C[C@@H]2CCN1C[C@@H]2CN1CCCCC1 | inactive: -3.93% [at 57.5 µM]
O=C1N(Cc2ccccn2)C[C@H]2CN(Cc3nccs3)CCN12 | inactive: -0.427% [at 57.5 µM]
CC(=O)N1CCCC2(CC(c3cccnc3)=NO2)C1 (stereo not given) | inactive: -0.134% [at 57.5 µM]
COc1ccc(-c2cc([C@H]3CN4CC[C@H]3C[C@@H]4CN)nc(C)n2)cc1OC | inactive: 9.84% [at 57.5 µM]
Cn1nc(-c2ccc(F)cc2)cc1[C@H]1CN2CC[C@H]1C[C@@H]2CNC(=O)c1cccs1 | inactive: -1.12% [at 57.5 µM]
COc1cccc([C@H]2CN(c3cc(C)nc(N)n3)[C@@H]3C4CCN(CC4)[C@H]23)c1 | inactive: 1.45%
O=C1CO[C@H]2CN(Cc3ccccc3)C[C@H]2N1Cc1cccnc1 | inactive: -2.74% [at 57.5 µM]
O=C(NCc1ccccc1)c1cn(C2CNC2)nn1 | inactive: -0.0705%
CCN1CCCNCC12CCOCC2 | inactive: 17.5%

Single entries from the results shown:
Value of O=C(Nc1ccc2n(c1=O)C[C@H]1C[C@@H]2CN(C(=O)NC2CCCCC2)C1)c1ccco1 under activity % (negative = inhibition): inactive: 37.6% [at 57.5 µM]
Value of COc1cccc([C@@H]2CCN(Cc3[nH]c4ccccc4c3C)C[C@H]2O)c1 under activity % (negative = inhibition): inactive: -1.13%
